Results taken from PubChem BioAssay AID2551 (National Center for Advancing Translational Sciences (NCATS), 2010).
In all, about 310,000 compounds went through this assay and about 17,000 (5.5%) were called active. Inconclusive results, whose numbers are uncertain, are shown with a selection of clear calls. The call rests on the fitted dose curve; in most records, active means well fitted inhibition curve with a large enough effect; inconclusive means small, poorly fitted or top-dose-only effect, or effect the other way; inactive means no such curve, though single readings can be large or run the other way. Where the call is inconclusive, the potency comes from a doubtful curve fit.

Chains of the proteins cited; added tags and fusions are not shown. Lines headed by an entry give the natural chain unless they say otherwise; changes in a name come on top.
UniProt P51450: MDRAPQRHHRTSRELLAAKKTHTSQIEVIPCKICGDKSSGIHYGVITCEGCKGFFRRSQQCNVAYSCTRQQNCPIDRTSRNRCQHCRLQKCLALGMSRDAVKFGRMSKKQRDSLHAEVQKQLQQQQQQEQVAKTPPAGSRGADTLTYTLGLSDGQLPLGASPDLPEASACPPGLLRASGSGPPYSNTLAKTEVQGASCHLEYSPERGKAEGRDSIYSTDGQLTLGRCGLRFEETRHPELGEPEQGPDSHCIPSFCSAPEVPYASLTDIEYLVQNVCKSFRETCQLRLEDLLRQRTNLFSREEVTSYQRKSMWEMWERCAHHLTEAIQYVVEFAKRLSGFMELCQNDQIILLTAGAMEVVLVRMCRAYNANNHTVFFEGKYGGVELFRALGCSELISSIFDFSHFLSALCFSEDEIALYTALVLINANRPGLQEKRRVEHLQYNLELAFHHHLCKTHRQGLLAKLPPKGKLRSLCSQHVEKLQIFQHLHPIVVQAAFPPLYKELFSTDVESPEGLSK

molecular target: Nuclear receptor ROR-gamma (Mus musculus) (UniProt P51450); experiment: qHTS for inhibitors of ROR gamma transcriptional activity; details: Drosophila S2 Gal4-RORgamma UAS-luciferase reporter, 20 h; activity change, negative = inhibition: at 53.6 µM (top of the series); further: nearly all actives have a fitted effect of over 60% in size
In short: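 ROR gamma transcriptional activity was tracked as Gal4-UAS luciferase output in stably transfected Drosophila Schneider cells, with compound added 1 hr before 700 uM copper sulfate induction and a 20 hr ambient-temperature incubation.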
On the % scale 0 is the no-effect control and ±100 the full control effect; potency means the concentration at half of the fitted maximal effect.

SMILES	Potency	activity change, negative = inhibition
CC(=O)Nc1ccc2c(c1)nc(CCN1CCC(C)CC1)n2C	inconclusive: 15.8 µM [activator, single point]	
Cc1nc(C)c(-c2csc(Nc3ccccn3)n2)s1	inconclusive: 0.891 µM [activator, full curve]	
Cc1ccc(-c2ccc(/C=C3\C(=O)ON=C3c3ccccc3)o2)c([N+](=O)[O-])c1	inconclusive: 35.5 µM [inhibitor, single point]	
COc1cccc(N=Nc2ccc(O)c3ncccc23)c1	active: 0.316 µM	
N#Cc1c(NC(=O)CSC2=NCCS2)sc2c1CCCC2	inconclusive: 2.51 µM [activator, single point]	
COc1ccc(NC(=O)Nc2ccc(C)cc2OC(F)F)cc1OC	inconclusive: 12.6 µM [activator, partial curve]	
CCc1ccc(-c2nn(-c3ccccc3)cc2CSC(=N)N)cc1	active: 11.2 µM	
Cc1ccc(C2C(C(N)=S)=C(N)OC3=C2C(=O)CC(C)(C)C3)cc1 (stereo not given)	inconclusive: 35.5 µM [inhibitor, partial curve, poor fit]	
CC1(C)CC2CC(C)(CN2C(=O)c2ccccc2)C1 (stereo not given)		inactive: -1.03%
COc1cc2nc(SCc3ccc(Cl)cc3Cl)n(Cc3cccs3)c(=N)c2cc1OC	inconclusive: 35.5 µM [inhibitor, single point]	
CN(C)c1oc(/C=C/c2cccs2)nc1S(=O)(=O)c1ccccc1	inconclusive: 3.16 µM [inhibitor, full curve]	
COc1ccc(S(=O)(=O)N(CC(N)=O)C2CCCCC2)cc1Cl		inactive: 46%
Cc1ccc(C)c(/C=N/n2cc(-c3ccccc3)[nH]c2=S)c1	active: 0.282 µM	
COc1ccccc1/C=C/C=N/n1c(-c2cc(C)[nH]n2)n[nH]c1=S	inconclusive: 17.8 µM [inhibitor, single point]	
CC(=O)Nc1nc(-c2ccc([N+](=O)[O-])cc2)cs1	inconclusive: 31.6 µM [activator, single point]	
O=c1oc(-c2ccccc2Cl)nc2ccsc12	inconclusive: 11.2 µM [inhibitor, partial curve, poor fit]	
OC1(c2cccs2)CN(c2ccccc2)C2=[N+]1CCCC2 (stereo not given)		inactive: -13.7%
COc1cccc(NC(=O)CN(C)CC(=O)Nc2ccc(C)c([N+](=O)[O-])c2)c1	inconclusive: 14.1 µM [activator, partial curve]	
Nc1c(NCCC2=CCCCC2)c(=O)[nH]c(=O)n1Cc1ccccc1		inactive: -18.1%
Cc1cc(CNC(=O)COc2ccccc2)c2ccccc2n1	inconclusive: 12.6 µM [activator, single point]	
CCc1n[nH]c(=S)n1/N=C/c1cc(OC)cc([N+](=O)[O-])c1O	inconclusive: 11.2 µM [inhibitor, partial curve]	
CCCOc1ccc(CSc2nc3ccccc3[nH]2)cc1	inconclusive: 35.5 µM [inhibitor, single point]	
CCCCNC(=O)N1CCN(Cc2ccc(F)cc2)CC1		inactive: 40.6%
CCOC(=O)CN(C(=O)CNC(=O)c1ccco1)C(C(=O)NC1CCCCC1)c1cccs1 (stereo not given)	inconclusive: 17.8 µM [activator, single point]	
Cc1ccccc1C(=O)O/N=C/c1c(N2CCOCC2)n(C)c2ccccc12	active: 1 µM	

SMILES	Potency	activity change, negative = inhibition
COc1ccc(S(=O)(=O)c2nnn(-c3ccccc3Cl)c2N)cc1	inconclusive: 10 µM [activator, partial curve]	
CC(=O)c1cccc(NC(=S)NC(=O)c2ccccc2Cl)c1	active: 12.6 µM	
O=C1c2ccccc2CN1CCNS(=O)(=O)c1ccc(Cl)cc1	inconclusive: 0.0316 µM [inhibitor, full curve, poor fit]	
Cc1cc(Cl)ccc1NC(=O)NC1CCN(S(=O)(=O)c2ccc(F)cc2)CC1		inactive: 25.6%
Nc1ccc(C#Cc2ccccc2)cc1		inactive: 17.8%
COC(=O)c1sc(-c2ccc(C(C)(C)C)cc2)cc1NC(=O)/C=C/C(=O)O	active: 12.6 µM	
CCc1ccc2[nH]c(=O)c(CN(Cc3ccccc3)C(=O)Nc3ccccc3OC)cc2c1		inactive: 35.5%
CC(=O)N1CCN(c2ccccc2NC(=O)c2cc3ccccc3o2)CC1	inconclusive: 0.1 µM [inhibitor, full curve, poor fit]	
COc1cccc(NC(=O)Nc2nnc(N3CCCCC3C)s2)c1 (stereo not given)	inconclusive: 11.2 µM [activator, partial curve, poor fit]	
O=C(NCc1ccccc1Cl)C1CCN(S(=O)(=O)c2ccc(N3CCCC3=O)cc2)CC1		inactive: -35%
COc1ccc(C(=O)C2CCCN(Cc3ccc(Sc4nncn4C)o3)C2)cc1F (stereo not given)		inactive: 6.42%
O=C(O)COc1ccc(-c2nc(-c3ccccc3)c(-c3ccccc3)[nH]2)cc1	inconclusive: 11.2 µM [activator, single point]	
N#CC(C#N)=c1ccc2c(c1)N1C3=C(CCCC3)CC3CCCCC31N=2 (stereo not given)		inactive: -10.5%
COc1ccc(-c2nnc3n2N=C(c2ccccc2OC)CS3)cc1	inconclusive: 11.2 µM [activator, partial curve]	
CCCCC(=O)N/N=C/c1ccc(-c2ccc([N+](=O)[O-])cc2)o1	inconclusive: 35.5 µM [inhibitor, single point]	
CCN(Cc1ccccc1)c1ccc(/C=N/NC(=S)NC(C)C)cc1	active: 1.26 µM	
COc1ccc(C)cc1NC(=O)NC1CCN(Cc2ccccc2)CC1	inconclusive: 0.158 µM [activator, single point]	
CCOC(=O)Cc1c(C)nc2c(-c3ccccc3)c[nH]n2c1=O	active: 7.94 µM	
O=C(Nc1ccc(Br)cc1)c1ccc2c(c1)OCO2	inconclusive: 12.6 µM [inhibitor, single point]	
O=C(CSCc1ccccc1)N/N=C/c1cc2c(cc1Br)OCO2	inconclusive: 2.82 µM [activator, single point]	
C=CCNc1nc(Cl)nc(Nc2ccc(OC)cc2OC)n1		inactive: -2.09%
CCCc1cc(=O)[nH]c(-n2[nH]c3c(c2=O)CCCC3)n1	active: 2.24 µM	
O=C(Nc1nc2c(s1)CCCC2)c1cccc(S(=O)(=O)N2CCCc3ccccc32)c1	active: 3.16 µM	
O=C(NNc1ccccc1[N+](=O)[O-])Nc1cccc(Cl)c1	inconclusive: 35.5 µM [inhibitor, single point]	
COc1ccc(-c2cc(C(=O)Nc3c(C)n(C)n(-c4ccccc4)c3=O)c3ccccc3n2)cc1OC		inactive: 3.03%

A draw from above in order of molecular weight, ascending:
SMILES	Potency	activity change, negative = inhibition
CC1(C)CC2CC(C)(CN2C(=O)c2ccccc2)C1 (stereo not given)		inactive: -1.03%
CC(=O)Nc1ccc2c(c1)nc(CCN1CCC(C)CC1)n2C	inconclusive: 15.8 µM [activator, single point]	
CC(=O)c1cccc(NC(=S)NC(=O)c2ccccc2Cl)c1	active: 12.6 µM	
O=C(O)COc1ccc(-c2nc(-c3ccccc3)c(-c3ccccc3)[nH]2)cc1	inconclusive: 11.2 µM [activator, single point]	

(further entries)

SMILES	Potency	activity change, negative = inhibition
COc1ccc2oc(-c3cccc(NC(=O)CSc4ccc(Cl)cc4)c3)nc2c1	inconclusive: 2.51 µM [inhibitor, partial curve]	
CCOC(=O)c1c(NC(=O)CCC(=O)N(CC)CC)sc2c1CC(C)(C)OC2	inconclusive: 35.5 µM [inhibitor, single point]	
CC(C)CNC(=S)Nc1ccc(Oc2ccccc2)cc1	active: 3.55 µM	
COc1cc(C(C(=O)NC2CCCCC2)N(Cc2cccs2)C(=O)Cc2c[nH]c3ccccc23)cc(OC)c1OC (stereo not given)		inactive: 37.1%
Cc1cc(N2C(=O)C(O)=C(C(=O)c3cc4ccccc4o3)C2c2cccc(Cl)c2)no1 (stereo not given)	inconclusive: 35.5 µM [inhibitor, single point]	
S=C(c1cn(CCOc2ccccc2)c2ccccc12)N1CCCC1	active: 7.08 µM	
COc1ccc(NC(=O)N2CCC3(CC2)CCN(C(=O)c2cccc(F)c2)CC3)cc1		inactive: 3.23%
CC(C)(C)C(=O)/C=C/c1ccc(Oc2ccccc2)cc1	inconclusive: 12.6 µM [activator, partial curve]	
COc1ccc(CCn2c(C)ccc2C)cc1OC	inconclusive: 22.4 µM [activator, partial curve, poor fit]	
Cc1ccc2cc(C3CC(c4ccco4)=NN3S(=O)(=O)c3ccccc3)c(Cl)nc2c1 (stereo not given)		inactive: 22%
O=C(c1ccc(CS(=O)(=O)Cc2ccccc2)cc1)N1CCCCC1		inactive: 22.2%
S=C1NCN(Cc2ccco2)CN1Cc1ccco1	inconclusive: 2.82 µM [inhibitor, single point]	
O=C(/C=C/c1ccccc1)N1c2ccccc2Sc2ccc(C(F)(F)F)cc21	inconclusive: 20 µM [activator, single point]	
CCOc1ccc(CCN2CN(CC)CNC2=S)cc1OCC	active: 12.6 µM	
CCN(C(=S)NC(=O)C1CC1)c1ccccc1	inconclusive: 25.1 µM [inhibitor, single point]	
CC1(C)Cc2c(sc3nc(SCC(=O)O)nc(N)c23)CO1		inactive: -21.2%
Cc1cccc(NC(=S)N2CCN(c3ccc(F)cc3)CC2)c1	active: 8.91 µM	
CCCC(c1nnnn1Cc1ccc(OC)cc1)N1CCN(C(=O)c2ccco2)CC1 (stereo not given)		inactive: -0.838%
COc1ccc(C2C(C(=O)c3cccs3)=C(O)C(=O)N2Cc2cccnc2)cc1OC (stereo not given)	inconclusive: 25.1 µM [activator, single point]	
CCn1c(CSCc2c(Cl)cccc2Cl)n[nH]c1=S	active: 3.16 µM	
CCc1ccc(C2CC(=O)N3CN(c4ccccc4)CSC3=C2C#N)cc1 (stereo not given)	inconclusive: 15.8 µM [inhibitor, single point]	
COc1ccc(CCNC(=O)C2CC(=O)N(c3ccc(C(C)(C)C)cc3)C2)cc1OC (stereo not given)	inconclusive: 7.94 µM [activator, partial curve]	
COc1ccc(CCNc2oc(COc3ccccc3F)nc2C#N)cc1	inconclusive: 5.62 µM [activator, single point]	
Cc1ccccc1CNc1ncnc2cc(Cl)ccc12		inactive: 33.5%
Cc1ccc(/C=N/NC(=O)CNC(=O)COc2ccc(Cl)cc2)o1		inactive: -7.95%
